PubChem BioAssay AID1259308, NCATS, 2017
The deposit covers about 59,000 reagents; shown is a part drawn at random. About 1,510 of them (2.6%) count as active. 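Calls use total luciferase alone and ignore viability, so some active siRNAs may act by altering cell number.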 Reagents against one gene are numbered here. Further read-outs or replicates are left out here. No sequences are given here.

Test: 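Knock-downs that increase output of a recombinant reporter protein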 (primary screen)
Cell system: human HEK293 embryonic kidney cells stably expressing firefly luciferase (HEK-CMV-Luc2-Hygro)
Reagent: single siRNA against human genes, 0.8 pmol siRNA per well
Duration: 72 h
Read-out: 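Luciferase light (ONE-Glo) measured on one replicate plate set and viability (CellTiter-Glo) on the other, scaled to a negative control siRNA, with robust z-scores and luciferase per cell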
Direction: total luciferase, z-score: higher = more reporter protein produced
Rule for the call: 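Active when the median/MAD z-score for overall luciferase is greater than 3; a gene was taken forward for validation with new siRNAs if at least two of its three siRNAs passed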
Meaning of the calls: active = raised luciferase; inactive = no rise

How did the screen score MAGEC1 (MAGE family member C1) #1?
total luciferase, z-score: -1.98; activity call: inactive

For MAGEC1 (MAGE family member C1) #2, how do the results read?
total luciferase, z-score: -0.55; activity call: inactive

For MAGEC1 (MAGE family member C1) #3, what does the deposit list?
total luciferase, z-score: 0.284; activity call: inactive

For DDX59 (DEAD-box helicase 59) #1, what was measured?
total luciferase, z-score: 0.0343; activity call: inactive

What did the screen give for DDX59 (DEAD-box helicase 59) #2?
total luciferase, z-score: -0.0441; activity call: inactive

With DDX59 (DEAD-box helicase 59) #3, what was measured?
total luciferase, z-score: 1.08; activity call: inactive

What did the screen give for DOCK9 (dedicator of cytokinesis 9) #1?
total luciferase, z-score: 0.364; activity call: inactive

With DOCK9 (dedicator of cytokinesis 9) #2, what does the deposit list?
total luciferase, z-score: -0.239; activity call: inactive

With DOCK9 (dedicator of cytokinesis 9) #3, what does the deposit list?
total luciferase, z-score: 1.83; activity call: inactive

With LARGE2 (LARGE xylosyl- and glucuronyltransferase 2) #1, how do the results read?
total luciferase, z-score: 1.04; activity call: inactive

With LARGE2 (LARGE xylosyl- and glucuronyltransferase 2) #2, what does the deposit list?
total luciferase, z-score: 2; activity call: inactive

For LARGE2 (LARGE xylosyl- and glucuronyltransferase 2) #3, what was measured?
total luciferase, z-score: -0.552; activity call: inactive

With SH3GL2 (SH3 domain containing GRB2 like 2, endophilin A1) #1, what does the deposit list?
total luciferase, z-score: -0.423; activity call: inactive

Which result is listed for SH3GL2 (SH3 domain containing GRB2 like 2, endophilin A1) #2?
total luciferase, z-score: 1; activity call: inactive

With SH3GL2 (SH3 domain containing GRB2 like 2, endophilin A1) #3, what was measured?
total luciferase, z-score: 0.125; activity call: inactive

Which result is listed for CTDSPL2 (CTD small phosphatase like 2) #1?
total luciferase, z-score: -2.04; activity call: inactive

How did the screen score CTDSPL2 (CTD small phosphatase like 2) #2?
total luciferase, z-score: -0.738; activity call: inactive

How did the screen score CTDSPL2 (CTD small phosphatase like 2) #3?
total luciferase, z-score: -0.257; activity call: inactive

What did the screen give for ZNRF2 (zinc and ring finger 2) #1?
total luciferase, z-score: 2.34; activity call: inactive

What is on record for ZNRF2 (zinc and ring finger 2) #2?
total luciferase, z-score: 0.0525; activity call: inactive

With ZNRF2 (zinc and ring finger 2) #3, what was measured?
total luciferase, z-score: 0.499; activity call: inactive

With LRRC27 (leucine rich repeat containing 27) #1, what does the deposit list?
total luciferase, z-score: 2.33; activity call: inactive

With LRRC27 (leucine rich repeat containing 27) #2, how do the results read?
total luciferase, z-score: -0.328; activity call: inactive

With LRRC27 (leucine rich repeat containing 27) #3, what does the deposit list?
total luciferase, z-score: -0.785; activity call: inactive

Which result is listed for EIF4EBP1 #1?
total luciferase, z-score: -0.0275; activity call: inactive

For EIF4EBP1 #2, what was measured?
total luciferase, z-score: -1.37; activity call: inactive

For EIF4EBP1 #3, what was measured?
total luciferase, z-score: 1.09; activity call: inactive

With LPL (lipoprotein lipase) #1, how do the results read?
total luciferase, z-score: -1.78; activity call: inactive

How did the screen score LPL (lipoprotein lipase) #2?
total luciferase, z-score: -0.241; activity call: inactive

For LPL (lipoprotein lipase) #3, what was measured?
total luciferase, z-score: -0.578; activity call: inactive

What did the screen give for MGAT3 #1?
total luciferase, z-score: -0.311; activity call: inactive

What did the screen give for MGAT3 #2?
total luciferase, z-score: -0.0741; activity call: inactive

What did the screen give for MGAT3 #3?
total luciferase, z-score: -0.325; activity call: inactive

What is on record for LONRF1 (LON peptidase N-terminal domain and ring finger 1) #1?
total luciferase, z-score: 0.767; activity call: inactive

What is on record for LONRF1 (LON peptidase N-terminal domain and ring finger 1) #2?
total luciferase, z-score: -0.387; activity call: inactive

With LONRF1 (LON peptidase N-terminal domain and ring finger 1) #3, what was measured?
total luciferase, z-score: -0.33; activity call: inactive

What did the screen give for MAD2L1 (mitotic arrest deficient 2 like 1) #1?
total luciferase, z-score: -0.974; activity call: inactive

What is on record for MAD2L1 (mitotic arrest deficient 2 like 1) #2?
total luciferase, z-score: 1.97; activity call: inactive

What is on record for MAD2L1 (mitotic arrest deficient 2 like 1) #3?
total luciferase, z-score: 1.79; activity call: inactive

For TMED8 (transmembrane p24 trafficking protein family member 8) #1, how do the results read?
total luciferase, z-score: 0.733; activity call: inactive

For TMED8 (transmembrane p24 trafficking protein family member 8) #2, what was measured?
total luciferase, z-score: -0.00316; activity call: inactive

What is on record for TMED8 (transmembrane p24 trafficking protein family member 8) #3?
total luciferase, z-score: -1.61; activity call: inactive
